Assay results from paper PMC12858398.
These are yes or no findings as the source states them, for the method shown. Binding seen in cells or lysates may run through a third protein. Some entries that bind do so weakly or less than the wild type.

The chains behind the UniProt entries cited, without tags or fusion partners.
UniProt Q9UKT9: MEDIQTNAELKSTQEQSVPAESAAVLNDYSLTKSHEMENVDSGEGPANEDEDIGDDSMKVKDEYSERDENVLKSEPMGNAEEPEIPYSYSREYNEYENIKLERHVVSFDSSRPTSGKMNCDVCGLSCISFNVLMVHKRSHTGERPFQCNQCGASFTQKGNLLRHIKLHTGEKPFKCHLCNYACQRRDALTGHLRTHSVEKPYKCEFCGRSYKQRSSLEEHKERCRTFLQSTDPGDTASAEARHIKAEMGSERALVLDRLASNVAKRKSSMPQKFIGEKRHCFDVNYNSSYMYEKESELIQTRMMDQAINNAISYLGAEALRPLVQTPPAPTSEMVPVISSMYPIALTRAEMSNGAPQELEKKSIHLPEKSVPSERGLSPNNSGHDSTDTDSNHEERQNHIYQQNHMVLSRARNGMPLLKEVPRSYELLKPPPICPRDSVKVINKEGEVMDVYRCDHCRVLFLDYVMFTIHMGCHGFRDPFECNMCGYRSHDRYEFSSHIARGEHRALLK

Molecular target: β-catenin (human, endogenous, stabilised with LY2090314) (human (endogenous in PDX2, JURL-MK1 and SW620 cells)) (UniProt P35222)
Assay: co-IP; β-catenin antibodies or control Ig; western blot of whole-cell lysates (input), elute and flowthrough of B-ALL (PDX2), myeloid leukemia (JURL-MK1) and colon cancer (SW620) cells 16 h after LY2090314 (20 nM)

binding	Substance
binds	IKZF1, human (from UniProt Q13422 1-519)
binds	IKZF3, human (from UniProt Q9UKT9 1-509)
